Experimental data as given in patent US4661472A, “GnRH antagonists IX” (The Salk Institute for Biological Studies, priority 1985, dated 1987).
Not every detail of the peptide structures is certain; ends, links or a residue may be inferred. Positions of bridges follow the written chain, without caps; N, C: chain ends. Non-standard residues stand in square brackets, D forms with d. Residues, ends and D or L forms follow the SMILES beside them. dPhe(4-Cl) = N[C@H](Cc1ccc(Cl)cc1)C(=O)O; d2Nal = N[C@H](Cc1ccc2ccccc2c1)C(=O)O; d3Pal = N[C@H](Cc1cccnc1)C(=O)O; Dap = NC[C@H](N)C(=O)O

System: ovulation in mature female Sprague-Dawley rats
Assay: in vivo test of effectiveness to prevent ovulation in female rats
Parameters: species or system rat
Conditions: injected at about noon on the day of proestrus

CC(=O)N[C@H](Cc1ccc2ccccc2c1)C(=O)N[C@H](Cc1ccc(Cl)cc1)C(=O)N[C@H](Cc1cccnc1)C(=O)N[C@H]1CNC(=O)C[C@@H](C(N)=O)NC(=O)[C@@H]2CCCN2C(=O)[C@H](CCCNC(=N)N)NC(=O)[C@H](CC(C)C)NC(=O)[C@@H](Cc2cccnc2)NC(=O)[C@H](CCCNC(=N)N)NC1=O [compound 2] (Ac-[d2Nal][dPhe(4-Cl)][d3Pal][Dap]R[d3Pal]LRPD-NH2; lactam 4-10)
number of treated rats which ovulate (dosage of 50 μg): 0 out of 10 | number of treated rats which ovulate (dosage of 10 micrograms): 9 out of 10

CC(=O)N[C@H](Cc1ccc2ccccc2c1)C(=O)N[C@H](Cc1ccc(Cl)cc1)C(=O)N[C@H](Cc1cccnc1)C(=O)N[C@H]1CNC(=O)C[C@H](C(N)=O)NC(=O)[C@@H]2CCCN2C(=O)[C@H](CCCNC(=N)N)NC(=O)[C@H](CC(C)C)NC(=O)[C@@H](Cc2cccnc2)NC(=O)[C@H](CCCNC(=N)N)NC1=O [compound 5] (Ac-[d2Nal][dPhe(4-Cl)][d3Pal][Dap]R[d3Pal]LRP[dD]-NH2; lactam 4-10)
number of treated rats which ovulate (dosage of 50 μg): 2 out of 9
